# In publication PMC3587604:
# These are yes or no findings as the source states them, for the method shown. For some of these results: In cells and extracts the contact can be indirect. Some binding calls cover weakened binding; strength is not graded here.
# T1: Prostate Secretory Protein of 94 amino acids (PSP94) (human) (UniProt P08118)
# T1 sequence: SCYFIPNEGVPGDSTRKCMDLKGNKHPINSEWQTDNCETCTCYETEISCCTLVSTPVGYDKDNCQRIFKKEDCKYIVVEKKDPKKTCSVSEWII
# T2: Prostatic Acid Phosphatase (PAP) (human) (UniProt P15309)
# T2 sequence: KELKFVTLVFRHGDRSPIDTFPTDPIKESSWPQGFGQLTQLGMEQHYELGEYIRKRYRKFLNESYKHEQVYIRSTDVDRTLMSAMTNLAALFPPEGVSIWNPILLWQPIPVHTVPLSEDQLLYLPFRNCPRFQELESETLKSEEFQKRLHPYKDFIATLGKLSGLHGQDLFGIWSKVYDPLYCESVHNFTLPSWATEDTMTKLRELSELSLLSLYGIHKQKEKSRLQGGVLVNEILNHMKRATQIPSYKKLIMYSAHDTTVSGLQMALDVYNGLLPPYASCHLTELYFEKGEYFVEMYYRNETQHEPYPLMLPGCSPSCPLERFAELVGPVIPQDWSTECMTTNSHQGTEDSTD
# T3: pure PAP (US Biological) (human) (UniProt P15309)
# T3 sequence: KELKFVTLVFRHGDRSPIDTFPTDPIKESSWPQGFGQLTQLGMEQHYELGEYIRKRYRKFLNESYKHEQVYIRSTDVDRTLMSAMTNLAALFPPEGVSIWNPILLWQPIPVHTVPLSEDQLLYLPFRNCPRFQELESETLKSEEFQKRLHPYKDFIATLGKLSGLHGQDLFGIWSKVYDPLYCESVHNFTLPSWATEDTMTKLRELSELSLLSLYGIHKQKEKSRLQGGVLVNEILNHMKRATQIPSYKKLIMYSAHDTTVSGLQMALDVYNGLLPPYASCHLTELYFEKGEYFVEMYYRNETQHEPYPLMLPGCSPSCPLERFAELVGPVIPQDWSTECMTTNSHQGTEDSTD
# B1: Prostatic Acid Phosphatase (PAP) (enzyme, UniProt P15309 33-386)
# chain: KELKFVTLVFRHGDRSPIDTFPTDPIKESSWPQGFGQLTQLGMEQHYELGEYIRKRYRKFLNESYKHEQVYIRSTDVDRTLMSAMTNLAALFPPEGVSIWNPILLWQPIPVHTVPLSEDQLLYLPFRNCPRFQELESETLKSEEFQKRLHPYKDFIATLGKLSGLHGQDLFGIWSKVYDPLYCESVHNFTLPSWATEDTMTKLRELSELSLLSLYGIHKQKEKSRLQGGVLVNEILNHMKRATQIPSYKKLIMYSAHDTTVSGLQMALDVYNGLLPPYASCHLTELYFEKGEYFVEMYYRNETQHEPYPLMLPGCSPSCPLERFAELVGPVIPQDWSTECMTTNSHQGTEDSTD
# B2: CRISP-3 (Cysteine Rich Secretory Protein-3) (protein, UniProt P54108 21-245)
# chain: NEDKDPAFTALLTTQTQVQREIVNKHNELRRAVSPPARNMLKMEWNKEAAANAQKWANQCNYRHSNPKDRMTSLKCGENLYMSSASSSWSQAIQSWFDEYNDFDFGVGPKTPNAVVGHYTQVVWYSSYLVGCGNAYCPNQKVLKYYYVCQYCPAGNWANRLYVPYEQGAPCASCPDNCDDGLCTNGCKYEDLYSNCKSLKLTLTCKHQLVRDSCKASCNCSNSIY
# B3: Prostate Secretory Protein of 94 amino acids (PSP94) (protein, UniProt P08118 21-114)
# chain: SCYFIPNEGVPGDSTRKCMDLKGNKHPINSEWQTDNCETCTCYETEISCCTLVSTPVGYDKDNCQRIFKKEDCKYIVVEKKDPKKTCSVSEWII
# Tests used:
# [1] = biological target: T1, Prostate Secretory Protein of 94 amino acids (PSP94) (human); test: co-IP; human seminal plasma (100 µg) diluted in PBS; anti-PAP or anti-PSP94 antibody with Protein G Sepharose; immunoblot with the other antibody; buffer control
# [2] = biological target: T1, Prostate Secretory Protein of 94 amino acids (PSP94) (human); test: co-IP; fraction III (50 µg) in PBS-TX100, pre-cleared; anti-PAP or anti-PSP94 antibody with Protein G Sepharose overnight at 4°C; immunoblot with the other antibody; controls: isotype antibody, normal rabbit serum, buffer
# [3] = biological target: T1, Prostate Secretory Protein of 94 amino acids (PSP94) (human); test: pull-down; PSP94 coupled to CNBr-activated Sepharose 4B; fraction II or III (20 µg in 300 µl of 50 mM PBS pH 7.2, 0.5% Triton X-100), pre-cleared on non-conjugated beads, 2 h at 37°C; eluted with 0.2 M glycine-HCl pH 2.8; eluate identified by silver stain with MALDI-TOF/TOF and by immunoblot; only the target purified
# [4] = biological target: T2, Prostatic Acid Phosphatase (PAP) (human); test: co-IP; human seminal plasma (100 µg) diluted in PBS; anti-PAP or anti-PSP94 antibody with Protein G Sepharose; immunoblot with the other antibody; buffer control
# [5] = biological target: T3, pure PAP (US Biological) (human); test: co-IP; pure PSP94 (500 ng) pre-incubated with pure PAP (500 ng) in vitro; immunoprecipitated with anti-PAP antibody, immunoblot with anti-PSP94 antibody; control without PAP; both purified
# [6] = biological target: T2, Prostatic Acid Phosphatase (PAP) (human); test: co-IP; fraction III (50 µg) in PBS-TX100, pre-cleared; anti-PAP or anti-PSP94 antibody with Protein G Sepharose overnight at 4°C; immunoblot with the other antibody; controls: isotype antibody, normal rabbit serum, buffer
Binder,binding [1],binding [2],binding [3],binding [4],binding [5],binding [6]
B1,binds,binds,binds,,,
B2,,,binds,,,
B3,,,,binds,binds,binds
